Test results reported in the supplement of paper PMC11732987, “Enantioselective OTUD7B fragment discovery through chemoproteomics screening and high-throughput optimisation” (Communications Chemistry, 2025).
The list shows a part of the results. The data scatter; read single values as rough.

Chains of the proteins cited; added tags and fusions are not shown. Lines headed by an entry give the natural chain unless they say otherwise; changes in a name come on top.
UniProt Q12789: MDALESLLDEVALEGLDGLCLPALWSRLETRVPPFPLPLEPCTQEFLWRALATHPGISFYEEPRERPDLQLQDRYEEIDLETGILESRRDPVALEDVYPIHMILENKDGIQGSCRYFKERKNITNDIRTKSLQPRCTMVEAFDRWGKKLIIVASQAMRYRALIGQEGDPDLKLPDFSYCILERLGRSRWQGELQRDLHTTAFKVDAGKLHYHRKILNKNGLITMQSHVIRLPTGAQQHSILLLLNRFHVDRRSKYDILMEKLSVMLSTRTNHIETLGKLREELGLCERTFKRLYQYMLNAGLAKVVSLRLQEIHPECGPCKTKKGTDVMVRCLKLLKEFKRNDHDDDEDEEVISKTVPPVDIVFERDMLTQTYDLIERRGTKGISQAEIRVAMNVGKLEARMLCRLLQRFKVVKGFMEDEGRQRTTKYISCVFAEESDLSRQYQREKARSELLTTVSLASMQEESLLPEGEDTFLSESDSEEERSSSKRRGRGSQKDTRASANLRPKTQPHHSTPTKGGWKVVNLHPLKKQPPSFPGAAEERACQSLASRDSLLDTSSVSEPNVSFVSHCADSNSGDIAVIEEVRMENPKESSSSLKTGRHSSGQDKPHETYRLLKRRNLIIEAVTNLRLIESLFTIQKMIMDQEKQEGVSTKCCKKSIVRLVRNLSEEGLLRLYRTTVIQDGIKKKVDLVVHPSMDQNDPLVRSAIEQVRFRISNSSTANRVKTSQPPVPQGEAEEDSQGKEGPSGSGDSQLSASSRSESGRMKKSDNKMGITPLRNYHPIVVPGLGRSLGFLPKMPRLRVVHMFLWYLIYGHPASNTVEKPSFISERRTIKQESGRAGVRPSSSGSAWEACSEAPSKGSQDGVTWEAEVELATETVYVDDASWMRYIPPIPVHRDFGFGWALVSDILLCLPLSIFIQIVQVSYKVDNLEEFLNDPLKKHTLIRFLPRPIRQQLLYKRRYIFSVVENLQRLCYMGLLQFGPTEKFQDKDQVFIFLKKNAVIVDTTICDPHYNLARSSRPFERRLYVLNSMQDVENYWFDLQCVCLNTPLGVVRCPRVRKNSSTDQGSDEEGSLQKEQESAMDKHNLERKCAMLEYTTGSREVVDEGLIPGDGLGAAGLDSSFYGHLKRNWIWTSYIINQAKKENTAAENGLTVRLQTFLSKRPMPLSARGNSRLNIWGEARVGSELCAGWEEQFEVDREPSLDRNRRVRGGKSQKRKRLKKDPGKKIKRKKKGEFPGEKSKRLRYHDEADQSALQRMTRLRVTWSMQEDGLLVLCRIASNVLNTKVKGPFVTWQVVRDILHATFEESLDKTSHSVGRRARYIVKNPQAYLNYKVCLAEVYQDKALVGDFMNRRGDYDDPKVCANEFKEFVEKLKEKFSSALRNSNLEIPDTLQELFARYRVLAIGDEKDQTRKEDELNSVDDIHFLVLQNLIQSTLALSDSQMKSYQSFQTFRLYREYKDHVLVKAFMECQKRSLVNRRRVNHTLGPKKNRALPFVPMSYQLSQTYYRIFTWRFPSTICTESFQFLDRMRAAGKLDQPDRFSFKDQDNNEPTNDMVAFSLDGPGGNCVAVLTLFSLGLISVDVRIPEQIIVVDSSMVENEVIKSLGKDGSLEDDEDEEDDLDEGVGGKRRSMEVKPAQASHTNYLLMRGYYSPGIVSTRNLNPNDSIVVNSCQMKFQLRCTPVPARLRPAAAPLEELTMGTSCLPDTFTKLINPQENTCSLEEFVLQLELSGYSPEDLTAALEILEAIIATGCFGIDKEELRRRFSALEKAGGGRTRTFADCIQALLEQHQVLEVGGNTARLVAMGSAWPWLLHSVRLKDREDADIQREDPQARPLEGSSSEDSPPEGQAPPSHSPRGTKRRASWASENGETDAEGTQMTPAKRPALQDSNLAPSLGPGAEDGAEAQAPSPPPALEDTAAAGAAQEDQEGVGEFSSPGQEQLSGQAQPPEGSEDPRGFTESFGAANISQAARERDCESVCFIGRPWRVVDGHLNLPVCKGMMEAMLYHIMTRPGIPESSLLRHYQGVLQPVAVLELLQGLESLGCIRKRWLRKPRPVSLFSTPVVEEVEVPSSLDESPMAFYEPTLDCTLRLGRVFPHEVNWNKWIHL
UniProt Q8NCD3, whole entry, looked up: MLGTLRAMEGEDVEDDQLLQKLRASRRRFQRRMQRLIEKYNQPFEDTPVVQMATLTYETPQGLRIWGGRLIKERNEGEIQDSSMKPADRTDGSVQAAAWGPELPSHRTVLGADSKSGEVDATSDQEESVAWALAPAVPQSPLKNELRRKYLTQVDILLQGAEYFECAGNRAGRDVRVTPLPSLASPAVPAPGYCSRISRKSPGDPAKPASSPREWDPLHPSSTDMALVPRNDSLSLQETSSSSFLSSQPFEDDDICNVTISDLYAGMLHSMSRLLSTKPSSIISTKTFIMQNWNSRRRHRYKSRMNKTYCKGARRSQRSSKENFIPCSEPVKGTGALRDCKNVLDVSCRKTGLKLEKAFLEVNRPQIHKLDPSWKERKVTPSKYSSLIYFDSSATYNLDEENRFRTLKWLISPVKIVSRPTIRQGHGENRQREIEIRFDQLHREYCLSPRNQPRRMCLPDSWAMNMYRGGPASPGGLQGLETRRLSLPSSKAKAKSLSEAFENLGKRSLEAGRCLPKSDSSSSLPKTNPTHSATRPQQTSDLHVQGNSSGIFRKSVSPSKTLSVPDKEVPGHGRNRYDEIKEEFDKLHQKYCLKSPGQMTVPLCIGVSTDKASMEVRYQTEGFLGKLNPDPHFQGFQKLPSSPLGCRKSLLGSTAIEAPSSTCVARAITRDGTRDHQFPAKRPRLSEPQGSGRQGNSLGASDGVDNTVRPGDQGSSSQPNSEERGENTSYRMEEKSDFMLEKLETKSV
UniProt Q9H6D7: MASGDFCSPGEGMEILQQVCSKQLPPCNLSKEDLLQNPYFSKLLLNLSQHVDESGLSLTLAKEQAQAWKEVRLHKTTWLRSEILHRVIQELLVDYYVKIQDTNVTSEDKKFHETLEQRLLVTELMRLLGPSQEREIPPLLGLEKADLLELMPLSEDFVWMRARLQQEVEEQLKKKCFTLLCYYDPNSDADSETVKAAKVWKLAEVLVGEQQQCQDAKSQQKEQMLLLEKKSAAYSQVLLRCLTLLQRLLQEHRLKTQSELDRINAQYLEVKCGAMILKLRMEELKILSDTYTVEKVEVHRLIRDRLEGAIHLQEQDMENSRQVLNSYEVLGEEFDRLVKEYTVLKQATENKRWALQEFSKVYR
UniProt Q13547, whole entry, looked up: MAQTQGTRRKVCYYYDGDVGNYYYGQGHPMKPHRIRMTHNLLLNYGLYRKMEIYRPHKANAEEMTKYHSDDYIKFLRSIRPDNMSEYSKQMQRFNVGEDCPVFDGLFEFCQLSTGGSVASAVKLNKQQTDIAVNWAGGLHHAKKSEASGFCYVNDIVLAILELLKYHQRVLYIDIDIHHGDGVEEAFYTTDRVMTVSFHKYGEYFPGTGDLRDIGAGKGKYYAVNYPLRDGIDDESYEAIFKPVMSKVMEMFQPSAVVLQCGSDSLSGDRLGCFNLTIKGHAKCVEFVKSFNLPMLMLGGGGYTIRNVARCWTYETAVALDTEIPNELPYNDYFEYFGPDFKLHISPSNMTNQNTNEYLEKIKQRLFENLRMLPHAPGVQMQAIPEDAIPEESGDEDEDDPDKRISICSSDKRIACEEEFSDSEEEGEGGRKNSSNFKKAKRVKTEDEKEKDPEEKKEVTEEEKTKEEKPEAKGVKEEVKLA
UniProt Q969Y2: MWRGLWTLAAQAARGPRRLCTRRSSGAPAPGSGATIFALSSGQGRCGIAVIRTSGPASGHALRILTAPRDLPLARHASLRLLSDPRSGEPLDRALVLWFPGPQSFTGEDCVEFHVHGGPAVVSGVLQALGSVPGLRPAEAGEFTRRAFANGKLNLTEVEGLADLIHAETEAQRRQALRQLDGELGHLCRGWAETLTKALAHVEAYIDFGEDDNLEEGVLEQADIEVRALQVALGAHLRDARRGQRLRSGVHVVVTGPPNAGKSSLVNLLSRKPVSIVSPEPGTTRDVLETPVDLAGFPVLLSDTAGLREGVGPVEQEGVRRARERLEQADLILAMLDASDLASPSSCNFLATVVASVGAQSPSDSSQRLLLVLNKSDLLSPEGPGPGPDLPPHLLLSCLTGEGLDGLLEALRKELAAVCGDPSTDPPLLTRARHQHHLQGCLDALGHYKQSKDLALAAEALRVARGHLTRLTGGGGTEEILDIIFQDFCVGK
UniProt Q9P2D3: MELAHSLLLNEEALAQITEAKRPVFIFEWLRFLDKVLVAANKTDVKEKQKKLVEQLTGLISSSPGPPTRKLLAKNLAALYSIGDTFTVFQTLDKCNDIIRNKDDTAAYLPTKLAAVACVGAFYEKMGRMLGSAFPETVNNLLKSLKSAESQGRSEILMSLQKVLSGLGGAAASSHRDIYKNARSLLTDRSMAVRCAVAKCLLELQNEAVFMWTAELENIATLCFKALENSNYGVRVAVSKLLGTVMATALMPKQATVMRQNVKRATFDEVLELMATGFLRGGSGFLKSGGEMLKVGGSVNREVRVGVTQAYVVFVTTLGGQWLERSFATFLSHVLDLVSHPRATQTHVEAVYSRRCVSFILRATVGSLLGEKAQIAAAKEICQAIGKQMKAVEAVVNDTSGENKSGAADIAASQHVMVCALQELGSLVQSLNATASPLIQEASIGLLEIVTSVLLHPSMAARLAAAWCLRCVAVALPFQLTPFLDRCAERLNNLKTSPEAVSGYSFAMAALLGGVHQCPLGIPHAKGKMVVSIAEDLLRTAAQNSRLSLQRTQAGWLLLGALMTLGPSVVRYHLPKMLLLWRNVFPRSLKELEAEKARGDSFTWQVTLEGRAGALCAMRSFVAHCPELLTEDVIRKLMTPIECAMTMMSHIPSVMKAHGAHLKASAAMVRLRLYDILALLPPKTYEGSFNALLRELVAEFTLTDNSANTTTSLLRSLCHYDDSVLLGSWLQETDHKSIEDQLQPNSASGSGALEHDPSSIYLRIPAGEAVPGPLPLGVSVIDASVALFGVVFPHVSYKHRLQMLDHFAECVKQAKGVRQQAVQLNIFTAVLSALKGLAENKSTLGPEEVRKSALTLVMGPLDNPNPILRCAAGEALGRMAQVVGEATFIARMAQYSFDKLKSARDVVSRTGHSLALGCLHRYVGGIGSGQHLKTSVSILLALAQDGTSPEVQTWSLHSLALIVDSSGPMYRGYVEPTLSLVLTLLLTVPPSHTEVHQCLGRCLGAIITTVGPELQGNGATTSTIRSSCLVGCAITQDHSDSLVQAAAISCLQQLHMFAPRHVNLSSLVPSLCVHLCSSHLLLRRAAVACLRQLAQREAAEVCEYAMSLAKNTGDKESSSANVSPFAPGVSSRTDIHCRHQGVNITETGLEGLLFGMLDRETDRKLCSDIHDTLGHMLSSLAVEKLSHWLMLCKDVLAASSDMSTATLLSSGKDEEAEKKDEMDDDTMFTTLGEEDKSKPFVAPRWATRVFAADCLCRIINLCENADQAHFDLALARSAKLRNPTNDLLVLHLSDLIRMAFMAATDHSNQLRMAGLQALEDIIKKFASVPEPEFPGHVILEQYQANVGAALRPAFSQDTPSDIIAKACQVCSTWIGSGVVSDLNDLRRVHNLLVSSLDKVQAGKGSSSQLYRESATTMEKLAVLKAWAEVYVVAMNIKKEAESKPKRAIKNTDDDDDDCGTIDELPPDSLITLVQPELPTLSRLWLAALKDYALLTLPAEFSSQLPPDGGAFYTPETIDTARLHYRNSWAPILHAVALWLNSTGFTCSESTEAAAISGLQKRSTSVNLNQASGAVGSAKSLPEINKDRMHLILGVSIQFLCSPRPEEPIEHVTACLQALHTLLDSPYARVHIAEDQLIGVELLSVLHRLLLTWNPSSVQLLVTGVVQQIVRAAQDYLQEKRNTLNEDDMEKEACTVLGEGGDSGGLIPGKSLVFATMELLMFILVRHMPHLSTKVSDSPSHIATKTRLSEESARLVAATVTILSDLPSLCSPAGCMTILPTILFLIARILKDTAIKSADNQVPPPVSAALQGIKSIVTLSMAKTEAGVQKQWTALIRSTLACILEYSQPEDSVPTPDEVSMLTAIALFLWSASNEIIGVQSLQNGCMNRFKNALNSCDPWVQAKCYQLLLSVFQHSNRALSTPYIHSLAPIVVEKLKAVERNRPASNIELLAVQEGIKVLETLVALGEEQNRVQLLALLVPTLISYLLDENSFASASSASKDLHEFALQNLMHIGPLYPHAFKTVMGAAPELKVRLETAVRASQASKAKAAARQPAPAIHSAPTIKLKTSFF
UniProt Q16774: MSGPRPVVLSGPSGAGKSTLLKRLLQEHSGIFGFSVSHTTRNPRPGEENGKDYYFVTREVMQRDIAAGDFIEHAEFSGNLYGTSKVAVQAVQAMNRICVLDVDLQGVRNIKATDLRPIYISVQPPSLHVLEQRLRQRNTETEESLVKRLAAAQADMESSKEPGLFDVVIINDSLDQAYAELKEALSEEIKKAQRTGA

Each target was assayed with ClCC(=O)N[C@@H]1CCCc2ccccc12 (assay: log2 mean competition ratio of IA-DTB cysteine labelling (DMSO/compound) (log2 ratio); higher = stronger cysteine engagement by compound). Details: 50 µM; treatment time: 4 h; cell line lysate: HEK293T.
Protocol: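 IA-DTB competitive cysteine chemoproteomics in HEK293T RIPA lysate. Lysates were treated with compound 29 or 30 at 50 or 200 µM for 4 h, then IA-DTB (500 µM, 1 h), trypsin-digested, NeutrAvidin-enriched and analysed by diaPASEF. Competition ratio = intensity DMSO / intensity compound (n=4 treated, n=64 DMSO); binding: mean log2 CR ≥ 1 and p ≤ 0.05 plus QC filters. Target is the cysteine site.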

Row | Target | log2 mean competition ratio
1 | GTPBP6 C99 (UniProt O43824) | 0.0443
2 | HMCES C39 (UniProt Q96FZ2) | -0.0291
3 | HOPX C68 | -0.0959
4 | GTF3C1 C1681 (UniProt Q12789) | -0.0386
5 | HJURP C348 (UniProt Q8NCD3) | 0.058
6 | HOXC6 C87 | 0.00327
7 | HECTD4 C3916 | 0.0326
8 | HEATR1 C1237 (UniProt Q9H583) | -0.274
9 | HABP4 C236 (UniProt Q5JVS0) | -0.124
10 | GTPBP2 C249 (UniProt Q9BX10) | -0.291
11 | HAPLN3 C233 | -0.116
12 | HOXB6 C88 | -0.238
13 | GTF3C1 C286 (UniProt Q12789) | -0.0386
14 | HDGFL2 C631 (UniProt Q7Z4V5) | 0.367
15 | HLTF C942 (UniProt Q14527) | 0.194
16 | HNRNPM C114 | 0.175
17 | GSTM3 C3 (UniProt P21266) | -0.142
18 | HAUS4 C272 (UniProt Q9H6D7) | -0.238

Row | Target | log2 mean competition ratio
19 | HDAC1 C408 (UniProt Q13547) | -0.0126
20 | GTF3C1 C114 (UniProt Q12789) | -0.0233
21 | HDLBP C636 | -0.103
22 | GTPBP3 C46 (UniProt Q969Y2) | 0.272
23 | HOXB6 C184 | 0.0983
24 | HMGXB3 C434 (UniProt Q12766) | -0.0767
25 | HNRNPLL C474 (UniProt Q8WVV9) | 0.0474
26 | HOXB6 C137 | 0.45
27 | HDAC4 C194 (UniProt P56524) | 0.0568
28 | HECTD3 C530 (UniProt Q5T447) | -0.0795
29 | HERC2 C1506 (UniProt O95714) | -0.0877
30 | HECTD1 C58 (UniProt Q9ULT8) | -0.221
31 | HERC2 C1037 (UniProt O95714) | 0.304
32 | HEATR5B C810 (UniProt Q9P2D3) | -0.121
33 | GUK1 C98 (UniProt Q16774) | -0.329
34 | GTF2H1 C506 (UniProt P32780) | -0.0261
35 | GSTO1 C32 | -0.0315
36 | HEATR5B C870 (UniProt Q9P2D3) | 0.201

Same assay, conditions: 200 µM; treatment time: 4 h; cell line lysate: HEK293T

Row | Target | log2 mean competition ratio
37 | GTPBP6 C99 (UniProt O43824) | 0.00376
38 | HMCES C39 (UniProt Q96FZ2) | -0.117
39 | HOPX C68 | 0.203
40 | GTF3C1 C1681 (UniProt Q12789) | -0.0956
41 | HJURP C348 (UniProt Q8NCD3) | 0.0941
42 | HOXC6 C87 | 0.251
43 | HECTD4 C3916 | -0.13
44 | HEATR1 C1237 (UniProt Q9H583) | 0.188
45 | HABP4 C236 (UniProt Q5JVS0) | -0.0817
46 | GTPBP2 C249 (UniProt Q9BX10) | 0.0956
47 | HOXB6 C88 | -0.591
48 | GTF3C1 C286 (UniProt Q12789) | 0.341
49 | HDGFL2 C631 (UniProt Q7Z4V5) | 0.0297
50 | HLTF C942 (UniProt Q14527) | 0.297
51 | HERC1 C1941 (UniProt Q15751) | -0.048
52 | HNRNPM C114 | -0.138
53 | GSTM3 C3 (UniProt P21266) | -0.337
54 | HAUS4 C272 (UniProt Q9H6D7) | -0.114
55 | HDAC1 C408 (UniProt Q13547) | 0.137

Row | Target | log2 mean competition ratio
56 | GTF3C1 C114 (UniProt Q12789) | 0.235
57 | HOXC10 C47 | 0.176
58 | HDLBP C636 | 0.144
59 | GTPBP3 C46 (UniProt Q969Y2) | 0.0689
60 | HOXB6 C184 | 0.177
61 | HMGXB3 C434 (UniProt Q12766) | -0.0156
62 | HNRNPLL C474 (UniProt Q8WVV9) | -0.0635
63 | HOXB6 C137 | 0.129
64 | HDAC4 C194 (UniProt P56524) | -0.14
65 | HECTD3 C530 (UniProt Q5T447) | 0.082
66 | HERC2 C1506 (UniProt O95714) | -0.252
67 | HECTD1 C58 (UniProt Q9ULT8) | -0.0987
68 | HERC2 C1037 (UniProt O95714) | 0.363
69 | HEATR5B C810 (UniProt Q9P2D3) | -0.174
70 | GUK1 C98 (UniProt Q16774) | 0.0866
71 | GTF2H1 C506 (UniProt P32780) | 0.351
72 | GSTO1 C32 | -0.328
73 | HEATR5B C870 (UniProt Q9P2D3) | 0.898
